Experimental data: PMC6756002
These are yes or no findings as the source states them, for the method shown. In cells and extracts the contact can be indirect. Some binding calls cover weakened binding; strength is not graded here. Sequences can lack the tags named with a protein.

Sequences of proteins named here, by UniProt entry; tags and fusion partners are left off.
UniProt Q9UBN7: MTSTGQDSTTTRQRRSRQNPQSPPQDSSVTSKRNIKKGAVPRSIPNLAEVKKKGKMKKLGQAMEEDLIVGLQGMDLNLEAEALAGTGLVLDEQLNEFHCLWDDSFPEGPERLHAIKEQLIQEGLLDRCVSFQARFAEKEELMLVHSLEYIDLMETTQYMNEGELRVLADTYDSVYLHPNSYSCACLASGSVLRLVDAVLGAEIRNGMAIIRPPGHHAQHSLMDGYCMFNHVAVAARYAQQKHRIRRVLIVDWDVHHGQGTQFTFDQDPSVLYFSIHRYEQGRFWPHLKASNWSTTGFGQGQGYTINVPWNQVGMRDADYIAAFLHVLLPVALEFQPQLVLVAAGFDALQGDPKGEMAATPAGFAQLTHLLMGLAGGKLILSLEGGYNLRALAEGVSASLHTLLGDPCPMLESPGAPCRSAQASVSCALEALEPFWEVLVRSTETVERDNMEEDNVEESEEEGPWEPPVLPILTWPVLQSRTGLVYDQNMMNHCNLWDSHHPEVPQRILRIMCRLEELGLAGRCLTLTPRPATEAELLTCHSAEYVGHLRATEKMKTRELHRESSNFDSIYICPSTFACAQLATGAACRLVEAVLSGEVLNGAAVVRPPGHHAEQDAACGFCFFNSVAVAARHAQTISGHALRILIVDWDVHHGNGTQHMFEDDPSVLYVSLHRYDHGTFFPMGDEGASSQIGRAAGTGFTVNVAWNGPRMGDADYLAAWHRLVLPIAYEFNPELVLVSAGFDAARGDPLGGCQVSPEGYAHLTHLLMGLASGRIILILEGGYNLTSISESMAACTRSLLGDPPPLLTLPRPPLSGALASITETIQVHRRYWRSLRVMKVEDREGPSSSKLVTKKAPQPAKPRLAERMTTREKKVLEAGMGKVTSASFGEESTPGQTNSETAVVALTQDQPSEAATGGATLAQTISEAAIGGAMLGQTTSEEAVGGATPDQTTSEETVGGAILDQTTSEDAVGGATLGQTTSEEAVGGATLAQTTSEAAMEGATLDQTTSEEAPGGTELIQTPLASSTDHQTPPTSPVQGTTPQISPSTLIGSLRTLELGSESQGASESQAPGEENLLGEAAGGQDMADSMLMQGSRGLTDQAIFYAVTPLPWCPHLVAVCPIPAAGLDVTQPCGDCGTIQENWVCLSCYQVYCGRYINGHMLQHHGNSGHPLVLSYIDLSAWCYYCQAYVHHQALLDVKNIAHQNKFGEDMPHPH

What was measured:
[1] = biological target: T1, Flag-FRA1 (Flag-FOSL1 construct) (UniProt P15407); assay: co-IP; IP-Flag from DLD1 cells transfected with Flag-FOSL1 and the indicated siRNAs (siNC, siSTAT3), IL-6 stimulation for 3 h; blot for HDAC6
T1 sequence: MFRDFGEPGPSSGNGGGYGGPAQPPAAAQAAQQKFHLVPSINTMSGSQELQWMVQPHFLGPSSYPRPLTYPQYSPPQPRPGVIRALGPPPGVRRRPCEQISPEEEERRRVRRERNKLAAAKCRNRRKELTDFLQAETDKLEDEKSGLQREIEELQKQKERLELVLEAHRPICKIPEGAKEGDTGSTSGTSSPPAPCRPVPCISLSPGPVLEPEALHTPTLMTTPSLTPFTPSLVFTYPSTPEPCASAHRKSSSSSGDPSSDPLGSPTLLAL

[2] = biological target: T1, Flag-FRA1 (Flag-FOSL1 construct); assay: co-IP; IP-Flag from 293T and DLD1 cells transfected with the indicated plasmids; blot for HDAC6

binding [1]	binding [2]	Substance
binds	–	HDAC6, endogenous (from UniProt Q9UBN7 1-1215) (enzyme)
–	binds	HDAC6, ectopic (from UniProt Q9UBN7 1-1215) (enzyme)
